The source gives many values for each of these; only a part stands here. One block for each compound: values may come before it.
Assay: Moisture sorption by DMSG on a controlled atmosphere microbalance
Assay type: physicochemical
Details: 25° C.
Method: The sorption of water by the solid lattice at a given relative humidity (RH) was measured by DMSG on a controlled atmosphere microbalance. Scans were carried out at 25° C. from 36% to 0% RH then ramped to 90% RH, and back down to 0% RH with a step size of 3% RH. A sample size of 8 to 14 mg was used. At each step, the balance was considered equilibrated when the mass change was less than 0.01 mg for five consecutive scans. There were 120 seconds between each scan.
Table 3 provides the moisture sorption data at 25° C. for Crystal Forms Ia and Ib of N-[1-azabicyclo[2.2.2]oct-3-yl]furo[2,3-c]pyridine-5-carboxamide.

% dMass (RH 0.44%, 90-0% RH): 0.002669%
% dMass (RH 0.58%, 90-0% RH): 0%
% dMass (RH 2.02%, 90-0% RH): 0.01334%
% dMass (RH 5.66%, 90-0% RH): 0.03114%
% dMass (RH 8.84%, 90-0% RH): 0.04092%
% dMass (RH 12%, 90-0% RH): 0.04537%
% dMass (RH 15.18%, 90-0% RH): 0.05426%
% dMass (RH 18.42%, 90-0% RH): 0.05871%
% dMass (RH 21.92%, 90-0% RH): 0.06494%
% dMass (RH 25.16%, 90-0% RH): 0.07028%
% dMass (RH 25.92%, 36-0% RH): 0.0854%
% dMass (RH 28.4%, 90-0% RH): 0.0765%
% dMass (RH 29.02%, 36-0% RH): 0.08985%
% dMass (RH 31.6%, 90-0% RH): 0.08451%
% dMass (RH 31.62%, 36-0% RH): 0.08985%
% dMass (RH 34.84%, 90-0% RH): 0.08807%
% dMass (RH 38.08%, 90-0% RH): 0.09607%
% dMass (RH 41.42%, 90-0% RH): 0.105%
% dMass (RH 44.74%, 90-0% RH): 0.113%
% dMass (RH 47.94%, 90-0% RH): 0.121%
% dMass (RH 51%, 90-0% RH): 0.1325%
% dMass (RH 54.06%, 90-0% RH): 0.1414%
% dMass (RH 57.24%, 90-0% RH): 0.1557%
% dMass (RH 60.44%, 90-0% RH): 0.169%
% dMass (RH 63.18%, 90-0% RH): 0.1824%
SMILES: O=C(N[C@H]1CN2CCC1CC2)c1cc2ccoc2cn1 [Crystal Form Ia, N-[(3R)-1-azabicyclo[2.2.2]oct-3-yl]furo[2,3-c]pyridine-5-carboxamide]

% dMass (RH 1.24%, 90-0% RH): 0%
% dMass (RH 3.88%, 90-0% RH): 0.03501%
% dMass (RH 7.04%, 90-0% RH): 0.06652%
% dMass (RH 10.28%, 90-0% RH): 0.09978%
% dMass (RH 13.58%, 90-0% RH): 0.1304%
% dMass (RH 16.86%, 90-0% RH): 0.1619%
% dMass (RH 20.06%, 90-0% RH): 0.1952%
% dMass (RH 23.26%, 90-0% RH): 0.2311%
% dMass (RH 26.5%, 90-0% RH): 0.2661%
% dMass (RH 29.66%, 90-0% RH): 0.2993%
% dMass (RH 31.08%, 36-0% RH): 0.4009%
% dMass (RH 32.76%, 90-0% RH): 0.3335%
% dMass (RH 33.94%, 36-0% RH): 0.4315%
% dMass (RH 35.96%, 90-0% RH): 0.372%
% dMass (RH 36.54%, 36-0% RH): 0.4613%
% dMass (RH 39.06%, 90-0% RH): 0.4105%
% dMass (RH 42.04%, 90-0% RH): 0.449%
% dMass (RH 45.12%, 90-0% RH): 0.4963%
% dMass (RH 48.12%, 90-0% RH): 0.5418%
% dMass (RH 51.08%, 90-0% RH): 0.5943%
% dMass (RH 54.12%, 90-0% RH): 0.6608%
% dMass (RH 57%, 90-0% RH): 0.7291%
% dMass (RH 59.94%, 90-0% RH): 0.8219%
% dMass (RH 62.72%, 90-0% RH): 0.9076%
% dMass (RH 65.6%, 90-0% RH): 1.008%
SMILES: O=C(N[C@H]1CN2CCC1CC2)c1cc2ccoc2cn1 [Crystal Form Ib, N-[(3R)-1-azabicyclo[2.2.2]oct-3-yl]furo[2,3-c]pyridine-5-carboxamide]

Source: patent US20050165047A1, “Crystalline fumarate salts of 1-azabicyclo[2.2.2]oct substituted furo[2,3-c]pyridinyl carboxamide and compositions and preparations thereof” (Pfizer Inc, priority 2002, published 2005)
